# Values quoted from earlier work as cited in patent publication US20250195455A1, “COMBINATION NASAL AND ORAL THERAPY FOR WEIGHT LOSS” (priority 2022, published 2025).
# At least one structure is not confirmed: it was looked up by name or label, or the drawing left a doubt.
compound,measurement,value
CCCCCCCCCCCCCCCC(=O)N[C@@H](CCC(=O)NCCCC[C@H](NC(=O)[C@H](C)NC(=O)[C@H](C)NC(=O)[C@H](CCC(N)=O)NC(=O)CNC(=O)[C@H](CCC(=O)O)NC(=O)[C@H](CC(C)C)NC(=O)[C@H](Cc1ccc(O)cc1)NC(=O)[C@H](CO)NC(=O)[C@H](CO)NC(=O)[C@@H](NC(=O)[C@H](CC(=O)O)NC(=O)[C@H](CO)NC(=O)[C@@H](NC(=O)[C@H](Cc1ccccc1)NC(=O)[C@@H](NC(=O)CNC(=O)[C@H](CCC(=O)O)NC(=O)[C@H](C)NC(=O)[C@@H](N)Cc1cnc[nH]1)[C@@H](C)O)[C@@H](C)O)C(C)C)C(=O)N[C@@H](CCC(=O)O)C(=O)N[C@@H](Cc1ccccc1)C(=O)N[C@H](C(=O)N[C@@H](C)C(=O)N[C@@H](Cc1c[nH]c2ccccc12)C(=O)N[C@@H](CC(C)C)C(=O)N[C@H](C(=O)N[C@@H](CCCNC(=N)N)C(=O)NCC(=O)N[C@@H](CCCNC(=N)N)C(=O)NCC(=O)O)C(C)C)[C@@H](C)CC)C(=O)O [Liraglutide],Average weight loss vs. placebo,2.9 kg./year
